Data as given in PubChem BioAssay AID652243 (Drosophila RNAi Screening Center, 2013).
Assay: 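Fly regulators of androgen-dependent reporter output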 (primary screen). Cell system: Drosophila S2R+ cells. Knock-down reagent: long dsRNA against Drosophila genes. Timing: 72 h (48 h, then 24 h hormone). Challenge: synthetic androgen R1881 at 10 nM for 24 h. Measurement: 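Per-well raw luminescence of the androgen-driven firefly reporter and of the Renilla control, two replicates each, without normalisation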. Direction: firefly reporter light: higher = more light from androgen-responsive reporter; Renilla control light: higher = more constitutive control signal (cell number, transfection). Call rule: 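Across duplicate plates, a knock-down whose log firefly/Renilla ratio shifted a set fold down or up from the GFP/LacZ control mean was a hit; the downward cut appears as both 1.5 and 3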. Meaning of the calls: active = hit: reporter lowered or raised; inactive = no hit.
In all, the deposit lists about 24,000 reagents; shown is an unselected part of those with a known target gene and a result. In the full data, 246 (1%) were called active. 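Plates not normalised; calls are printed but the firefly/Renilla ratio behind them is not deposited; fold cut for lowering reported inconsistently.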 Raw values vary from plate to plate and are shown uncorrected. A plus sign joins genes that one reagent is predicted to hit. The record does not give: the amount of reagent.

gene	DRSC id	firefly reporter light, replicate 1	firefly reporter light, replicate 2	Renilla control light, replicate 1	Renilla control light, replicate 2	outcome
CG14629	DRSC18476	83887	1.32e5	1.74e6	1.56e6	inactive
CG14629	DRSC23909	6.29e5	7.74e5	9.00e5	8.72e5	inactive
CG17321	DRSC02598	1.51e5	1.98e5	1.89e6	1.75e6	inactive
CG17321	DRSC25649	8.22e5	9.12e5	7.14e5	8.35e5	inactive
or	DRSC04329	2.21e5	2.13e5	1.20e6	1.03e6	inactive
or	DRSC29241	4.61e5	4.49e5	1.38e6	1.33e6	inactive
CG14014	DRSC02345	54852	1.13e5	8.20e5	8.27e5	inactive
Lcp65Ab2 + Lcp65Ab1	DRSC10340	1.85e5	2.01e5	1.93e6	2.06e6	inactive
Lcp65Ab2 + Lcp65Ab1	DRSC10343	1.95e5	2.08e5	1.51e6	1.69e6	inactive
Lcp65Ab2 + Lcp65Ab1	DRSC29739	4.62e5	4.09e5	1.52e6	1.30e6	inactive
HmgZ	DRSC03888	1.30e5	1.52e5	4.88e5	7.02e5	inactive
HmgZ	DRSC04620	4.12e5	6.59e5	1.07e6	2.53e6	inactive
Gyc89Da	DRSC15008	2.22e5	1.78e5	2.67e6	3.07e6	inactive
CG10252	DRSC14221	1.00e5	64618	4.66e5	3.26e5	inactive
CG10340	DRSC14232	83273	61866	3.08e5	5.12e5	inactive
dtn	DRSC17939	2.10e5	2.89e5	1.59e6	1.39e6	inactive
dtn	DRSC29824	3.76e5	3.98e5	1.19e6	1.49e6	inactive
CG33773	DRSC38806	1.07e6	9.69e5	2.57e6	1.89e6	inactive
CG9886	DRSC00732	8.28e5	1.11e6	3.77e6	1.91e6	inactive
CG9886	DRSC26380	3.52e5	2.83e5	9.31e5	8.89e5	inactive
CG13723	DRSC10052	3.17e5	3.04e5	2.99e6	2.76e6	inactive
CG15293	DRSC01919	2.72e5	2.05e5	2.75e6	1.41e6	inactive
AhcyL2	DRSC14107	83767	93490	1.44e6	1.65e6	inactive
NijC	DRSC14851	78802	1.32e5	1.77e6	1.82e6	inactive
NijC	DRSC29054	5.53e5	5.29e5	1.73e6	1.17e6	inactive
AnxB11	DRSC19331	50089	41922	4.31e5	4.44e5	inactive
AnxB11	DRSC26479	1.35e5	1.07e5	2.18e5	1.34e5	inactive
Cpr47Eb	DRSC06345	2.01e5	1.87e5	1.55e6	1.72e6	inactive
Socs44A	DRSC06828	3.56e5	2.81e5	2.11e6	1.85e6	inactive
Gp210	DRSC04861	4.65e5	3.09e5	2.52e6	2.13e6	inactive
Gp210	DRSC04900	8.33e5	7.63e5	2.44e6	2.41e6	inactive
CG12099	DRSC08253	50997	64398	9.36e5	1.01e6	inactive
CG32112	DRSC09815	1.99e5	2.36e5	1.27e6	2.12e6	inactive
CG9109	DRSC03139	1.05e6	1.18e6	2.10e6	2.05e6	inactive
CG9109	DRSC26398	3.15e5	2.74e5	5.67e5	6.30e5	inactive
Mef2	DRSC07468	5.36e5	4.03e5	1.68e6	1.47e6	inactive
Mef2	DRSC25554	5.51e5	6.52e5	5.29e5	5.28e5	inactive
Coq7 + shf	DRSC18448	1.24e5	1.96e5	2.49e6	2.49e6	inactive
CG7810	DRSC03072	1.32e6	1.23e6	2.54e6	1.93e6	inactive
CG7810	DRSC27997	7.18e5	4.13e5	1.56e6	1.24e6	inactive
CG13795	DRSC02299	2.95e5	3.23e5	2.53e6	2.21e6	inactive
CG34324	DRSC23241	8.13e5	9.94e5	1.32e6	1.67e6	inactive
Eig71Ed	DRSC11151	2.10e5	2.60e5	2.75e6	2.20e6	inactive
CG9338	DRSC03213	1.68e6	1.13e6	3.70e6	2.95e6	inactive
CG9338	DRSC24503	1.10e6	5.91e5	1.13e6	1.33e6	inactive
CG6659	DRSC20003	75928	95697	3.68e5	6.01e5	inactive
CG11771	DRSC14379	81244	71575	5.49e5	4.47e5	inactive
CG11771	DRSC27732	2.38e5	2.54e5	5.03e5	6.36e5	inactive
asRNA:CR42871 + CG6661	DRSC39120	5.37e5	5.38e5	1.64e6	1.51e6	inactive
asRNA:CR42871 + CG6661	DRSC39121	7.66e5	7.22e5	1.66e6	1.31e6	inactive
Uch-L5	DRSC11314	9.66e5	5.57e5	9.21e5	9.69e5	inactive
Uch-L5	DRSC27736	2.17e5	2.38e5	5.34e5	8.80e5	inactive
CG5196	DRSC15735	1.98e5	1.79e5	2.25e6	2.01e6	inactive
CG5196	DRSC26959	3.42e5	3.13e5	5.89e5	4.27e5	inactive
Irp-1B	DRSC16720	1.63e5	1.98e5	2.26e6	1.86e6	inactive
Irp-1B	DRSC24261	5.84e5	4.02e5	5.69e5	5.30e5	inactive
CG42540	DRSC08328	73663	63509	1.23e6	1.64e6	inactive
CG42540	DRSC23011	6.46e5	8.67e5	2.04e6	2.23e6	inactive
CG42540	DRSC25814	5.14e5	5.99e5	9.37e5	8.45e5	inactive
CG42540	DRSC28858	5.93e5	3.38e5	1.42e6	1.01e6	inactive

3 of these entries, set out differently:
{"gene":"CG32112","DRSC id":"DRSC09815","firefly reporter light, replicate 1":1.99e5,"firefly reporter light, replicate 2":2.36e5,"Renilla control light, replicate 1":1.27e6,"Renilla control light, replicate 2":2.12e6,"outcome":"inactive"}
{"gene":"CG9109","DRSC id":"DRSC03139","firefly reporter light, replicate 1":1.05e6,"firefly reporter light, replicate 2":1.18e6,"Renilla control light, replicate 1":2.10e6,"Renilla control light, replicate 2":2.05e6,"outcome":"inactive"}
{"gene":"CG9109","DRSC id":"DRSC26398","firefly reporter light, replicate 1":3.15e5,"firefly reporter light, replicate 2":2.74e5,"Renilla control light, replicate 1":5.67e5,"Renilla control light, replicate 2":6.30e5,"outcome":"inactive"}
